For part of these data: Not every detail of the peptide structures is certain; ends, links or a residue may be inferred. Some compounds share one wording; it may come from a single statement. For at least one compound, name, drawing or mass did not settle the structure.
Assays:
[1] = In-vivo antitumor activity test in human stromal tumor SHG44 (subcutaneous tumor block in nude mice); set-up: species or system BALB/C nude mice; details: for RTV (d22) / Tumor inhibition rate %: SHG44, 10 mg/kg, Ipx5 each week for 2 continuous weeks; for Tumor inhibition rate %: d22
Method: (§1) Animals: BALB/C nude mice (SPF grade), male, and 18-20 g. The compounds were firstly added with DMSO at a total amount of 4%, then added with Tween-80 at a total amount of 2% for assisting dissolution, then added with PEG300 at a total amount of 5%, and finally added with sterilized normal saline to be prepared into a solution at 1 mg/mL. Idasanutlin was firstly added with DMSO at a total amount of 4%, then added with Tween-80 at a total amount of 2% for assisting dissolution, then added with PEG300 at a total amount of 5%, and finally added with sterilized normal saline to be prepared into a solution at 2.5 mg/mL.
(§2) A well-grown human stromal tumor SHG44 mass was taken and aseptically cut into uniform small blocks of about 3 mm in size, and a right axilla of each mouse was subcutaneously inoculated with one block through a trocar. […] The animals were regrouped according to a tumor size. The animals with too large and too small tumors were sifted out. An average tumor volume in each group was approximately the same. An administration was started according to the following solution with an administration volume of 0.2 mL/20 g body weight. A long diameter a (mm) of the tumor and a short diameter b (mm) vertical to the tumor were measured by a digital display electronic caliper 2 times a week from day 9 of the inoculation. A tumor volume was calculated by the formula: TV=ab^2/2, and a relative tumor volume was calculated by the formula: RTV=Vt/Vo, wherein Vo was the obtained tumor volume measured at a cage separation (i.e. d1) and Vt was the tumor volume measured at each time. The animals were sacrificed 30 days after the inoculation (d22) and weighed, tumor mass was obtained by dissection and weighed, and the results were determined according to the following formula: […]

[2] = test system: tumor cell strains (colon cancer, pancreatic cancer, esophageal squamous carcinoma, gastric cancer, glioma); experiment: Summary of in-vitro proliferation inhibition on tumor cell strains (Examples 19-21); type: cell-based, human
Method: A part of the compounds prepared in the examples of the present disclosure were subjected to a tumor cell proliferation inhibition test by using a CCK-8 method. A cell line HCT116 (human colon carcinoma cells) and SW1990 (human pancreatic carcinoma cells) were purchased from Shanghai Meixuan Technology Co., Ltd. Samples (a part of the compounds prepared in the examples) were dissolved in DMSO (Merck), prepared into a concentration of 10 mM, and finally triply diluted in DMEM or McCoy's 5A 1640 medium to 8 concentration gradients. A cell culture solution was collected when a cell culture met a test requirement, 10 μL of the cell culture solution was uniformly coated on a cell counting plate, cells were counted for 3 times under a microscope, and a cell density was calculated by taking an average value; and a 96-well plate (Corning, #3599) was taken, 200 μL of the cell culture solution was added into each well for cell inoculation at a cell concentration of 6×10^3 cells per well, and the inoculated 96-well plate was incubated in a cell incubator containing 5% CO2 at 37° C. for 24 h. […] The original DMEM or McCoy's 5A 1640 medium in the 96-well plate and a PBS buffer in a final row were sucked out, a prepared CCK-8 solution (90% DMEM or McCoy's 5A 1640 medium+10% CCK-8) was added, the mixture was incubated in an incubator, and an absorbance was read by using a Biotek microplate reader. […]
In-vitro activity test: 100 μL of a cell suspension at a concentration of 4-5×10^4/mL was added to each well of a 96-well plate, and placed in a 5% CO2 incubator at 37° C. […] 20 μL of 5 mg/ml of an MTT solution was added into each well and reacted for 4 h, a dissolving solution was added at 100 μL/well, the mixture was placed in an incubator, and after dissolution, an OD value at 570 nm was measured with a full-wavelength multifunctional microplate reader. An inhibition rate (IR) and a median inhibitory concentration (IC50) were calculated by using an Excel software. […]

[3] = test system: human gastric carcinoma MGC803; experiment: In-vivo antitumor activity test in human gastric carcinoma MGC803 (subcutaneous tumor block in nude mice); set-up: species or system BALB/C nude mice
Method: as §1
as §2, with “gastric carcinoma MGC803” for “stromal”, “tumor” for “tumor SHG44”

[4] = test system: human esophageal cancer KYSE-150; experiment: In-vivo antitumor activity test in human esophageal cancer KYSE-150 (subcutaneous tumor block in nude mice); set-up: species or system BALB/C nude mice
Method: as §1
as §2, with “esophageal cancer KYSE-150” for “stromal”, “tumor” for “tumor SHG44”

COc1cc(C(=O)NCCOCCOCCOCCOCCC(=O)NCC(=O)NCC(=O)N[C@@H](Cc2ccccc2)C(=O)NCC(=O)Nc2ccc(COC(=O)N3CCN(C(=O)O[C@H]4CC[C@@]5(C)[C@H](CC[C@@H]6[C@@H]5[C@H](O)C(=O)[C@]5(C)[C@@H](c7ccc(=O)oc7)CC[C@]65O)C4)CC3)cc2)ccc1NC(=O)[C@@H]1N[C@@H](CC(C)(C)C)[C@](C#N)(c2ccc(Cl)cc2F)[C@H]1c1cccc(Cl)c1F [Compound I-16]
in-vivo antitumor activity of the human stromal tumor SHG44 (in words) [1]: good in-vivo antitumor activity | RTV (d22) [1]: 2.48 ± 0.96 | Tumor inhibition rate % [1]: 49.23% | Proliferation inhibition activities IC50 on most tumor cell strains (in words) [2]: between several to hundreds of nanomoles

COc1cc(C(=O)NCCOCCOCCOCCOCCC(=O)NCC(=O)NCC(=O)N[C@@H](Cc2ccccc2)C(=O)NCC(=O)Nc2ccc(COC(=O)N3CCC(NC(=O)O[C@H]4CC[C@]5(C)C6CC[C@]7(C)[C@@H](c8ccc(=O)oc8)CC[C@]7(O)C6CC[C@@H]5C4)CC3)cc2)ccc1NC(=O)[C@@H]1N[C@@H](CC(C)(C)C)[C@](C#N)(c2ccc(Cl)cc2F)[C@H]1c1cccc(Cl)c1F (stereo partly drawn) [Compound I-17]
in-vivo antitumor activity of the human stromal tumor SHG44 (in words) [1]: good in-vivo antitumor activity | RTV (d22) [1]: 3.11 ± 0.37 | Tumor inhibition rate % [1]: 36.30% | Proliferation inhibition activities IC50 on most tumor cell strains (in words) [2]: between several to hundreds of nanomoles

COc1cc(C(=O)NCCOCCOCCOCCOCCC(=O)N[C@@H](C(=O)N[C@@H](CCCNC(N)=O)C(=O)Nc2ccc(COC(=O)N3CCC(NC(=O)O[C@H]4CC[C@]5(C)C6CC[C@]7(C)[C@@H](c8ccc(=O)oc8)CC[C@]7(O)C6CC[C@@H]5C4)CC3)cc2)C(C)C)ccc1NC(=O)[C@@H]1N[C@@H](CC(C)(C)C)[C@](C#N)(c2ccc(Cl)cc2F)[C@H]1c1cccc(Cl)c1F (stereo partly drawn) [Compound I-4]
in-vivo antitumor activity of the human stromal tumor SHG44 (in words) [1]: good in-vivo antitumor activity | RTV (d22) [1]: 2.28 ± 0.31 | Tumor inhibition rate % [1]: 53.31% | in-vivo antitumor activity of the human gastric carcinoma MGC803 (in words) [3]: good in-vivo antitumor activity | RTV (d22) ([3]; MGC803, 10 mg/kg, Ipx5 each week for 2 continuous weeks): 1.82 ± 0.48 | Tumor inhibition rate % ([3]; MGC803, 10 mg/kg, Ipx5 each week for 2 continuous weeks, d22): 54.50% | in-vivo antitumor activity of the human esophageal cancer KYSE-150 (in words) [4]: good in-vivo antitumor activity | RTV (d22) ([4]; KYSE-150, 10 mg/kg, Ipx5 each week for 2 continuous weeks): 4.47 ± 0.86 | Tumor inhibition rate % ([4]; KYSE-150, 10 mg/kg, Ipx5 each week for 2 continuous weeks, d22): 54.48% | Proliferation inhibition activities IC50 on most tumor cell strains (in words) [2]: between several to hundreds of nanomoles

— patent US20240024494A1, “SMALL-MOLECULE CONJUGATE AND USE THEREOF” (SHANGHAI MEWSGEN BIOTECHNOLOGY CO., LTD, priority 2020, published 2024)
